Some entries share one result that the patent states for a list of compounds.
Tested on: Staphylococcus aureus NCTC 10788
Assay: Zone of inhibition, seeded Mueller-Hinton agar plug-hole assay
Type: cell-based
Conditions: summary of the zone of inhibition test of Example 8, both organisms (S. aureus and P. aeruginosa)
Protocol: Pseudomonas aeruginosa NCIMB 8626 and Staphylococcus aureus NCTC 10788 were harvested. Serial 1:10 dilutions were performed to give a final concentration of 10^8 bacteria/ml. Further dilutions were made for an inoculum count, down to […], with the number of bacteria/ml determined using the pour plate method.
Two large assay plates were then set up and 140 ml of Mueller-Hinton agar was added evenly to the large assay plates and allowed to dry (15 minutes). A further 140 ml of agar was seeded with the corresponding test organism and poured over the previous agar layer. Once the agar had set (15 minutes), the plate was dried at 37° C. for 30 minutes with the lid removed. 8 mm plugs were removed from the plate by biopsy punch.
In triplicate, 10 mg of the compounds prepared in Examples 1-3 were placed onto each plug hole followed by 200 ul sterile water. The plates were then sealed and incubated at 37° C. for 24 hours. The size of the microbial, including bacterial, zone cleared was measured using a Vernier calliper gauge, triplicates were averaged: […]

Silver(III) o-tolybiguanide Complex [Example 3]
Antimicrobial behaviour (summary in words): significant antimicrobial behaviour

From patent US9751833B2, “Antimicrobial biguanide metal complexes” (Smith & Nephew PLC, priority 2005, dated 2017)
